Measurements taken from patent publication US20260217692A1 (Ascentage Pharma (Suzhou) Co., Ltd., priority 2023, published 2026).
Counter-ions that a name gives are not always drawn. The source gives many values for each of these; only a part stands here.

How the values were obtained:
Assay type in all cases: physicochemical
[1] = Polymorph screening test, volatilization method (crystal form by XRPD); conditions: mesylate screening
[2] = Polymorph screening test, suspension method (crystal form by XRPD after stirring in solvent); conditions: mesylate screening, 3 days
Protocol: (or 50° C.) for 3 days in the dark and centrifuged to remove the supernatant; the resulting precipitate was dried under vacuum (25° C., −0.1 MPa); and the resulting solid was collected and subjected to the XRPD test. The results are as follows:
(or 50° C./80° C.) for 3 days in the dark and centrifuged to remove the supernatant; and the resulting precipitate was dried under vacuum (25° C., −0.1 MPa).
(or 50° C.) for 3 days in the dark and centrifuged to remove the supernatant; and the resulting precipitate was dried under vacuum (25° C., −0.1 MPa).

[3] = Polymorph screening test, heating and cooling method (crystal form by XRPD); conditions: mesylate screening, dissolved at 50° C., cooled to 4° C.
Description: (§1) The results are as follows:

[4] = Polymorph screening test, poor solvent / anti-solvent method (crystal form by XRPD); conditions: mesylate screening, stirred 5 days
Description: as §1

SMILES: Cc1cc(Nc2ncc(Cl)c(Nc3ccccc3S(=O)(=O)C(C)C)n2)c(OC(C)C)cc1C1=CCN(C2CCOCC2)CC1 [one equivalent of mesylate crystal form A]
- Crystal form (XRPD) ([1]; slow volatilization at room temperature from 1,4-Dioxane): Glass state
- Crystal form (XRPD) ([1]; slow volatilization at room temperature from Acetone): Glass state
- Crystal form (XRPD) ([1]; slow volatilization at room temperature from Acetone-water 1:1): Crystal form B
- Crystal form (XRPD) ([1]; slow volatilization at room temperature from Acetonitrile): Crystal form B
- Crystal form (XRPD) ([1]; slow volatilization at room temperature from Acetonitrile-water 1:1): Glass state
- Crystal form (XRPD) ([1]; slow volatilization at room temperature from Dichloromethane): Crystal form B
- Crystal form (XRPD) ([1]; slow volatilization at room temperature from Dichloromethane/acetone (v/v, 1:1)): Glass state
- Crystal form (XRPD) ([1]; slow volatilization at room temperature from Dichloromethane/acetonitrile (v/v, 1:1)): Crystal form B
- Crystal form (XRPD) ([1]; slow volatilization at room temperature from Dichloromethane/ethyl acetate (v/v, 1:1)): Crystal form B
- Crystal form (XRPD) ([1]; slow volatilization at room temperature from Dichloromethane/methanol (v/v, 1:1)): Crystal form B
- Crystal form (XRPD) ([1]; slow volatilization at room temperature from Dichloromethane/tetrahydrofuran (v/v, 1:1)): Colloidal
- Crystal form (XRPD) ([1]; slow volatilization at room temperature from Ethanol): Glass state
- Crystal form (XRPD) ([1]; slow volatilization at room temperature from Methanol): Crystal form B
- Crystal form (XRPD) ([1]; slow volatilization at room temperature from Methanol-water 1:1): Glass state
- Crystal form (XRPD) ([1]; slow volatilization at room temperature from Tetrahydrofuran): Colloidal
- Crystal form (XRPD) ([2]; suspension in 2-Methyltetrahydrofuran, 25° C.): Crystal form A
- Crystal form (XRPD) ([2]; suspension in 2-Methyltetrahydrofuran, 50° C.): Crystal form A
- Crystal form (XRPD) ([2]; suspension in Acetone, 25° C.): Crystal form A
- Crystal form (XRPD) ([2]; suspension in Acetone, 50° C.): Crystal form D
- Crystal form (XRPD) ([2]; suspension in Acetonitrile, 25° C.): Crystal form B
- Crystal form (XRPD) ([2]; suspension in Acetonitrile, 50° C.): Crystal form C
- Crystal form (XRPD) ([2]; suspension in Cyclohexane, 25° C.): Crystal form A
- Crystal form (XRPD) ([2]; suspension in Cyclohexane, 50° C.): Crystal form A
- Crystal form (XRPD) ([2]; suspension in Dichloromethane/acetonitrile (v/v, 1:1), 25° C.): Clear solution
- Crystal form (XRPD) ([2]; suspension in Dichloromethane/acetonitrile (v/v, 1:1), 50° C.): No solid sample
- Crystal form (XRPD) ([2]; suspension in Dichloromethane/ethyl acetate (v/v, 1:1), 25° C.): Crystal form A
- Crystal form (XRPD) ([2]; suspension in Dichloromethane/ethyl acetate (v/v, 1:1), 50° C.): No solid sample
- Crystal form (XRPD) ([2]; suspension in Dichloromethane/tetrahydrofuran (v/v, 1:1), 25° C.): Crystal form A
- Crystal form (XRPD) ([2]; suspension in Dichloromethane/tetrahydrofuran (v/v, 1:1), 50° C.): No solid sample
- Crystal form (XRPD) ([2]; suspension in Ethanol, 25° C.): Crystal form A
- Crystal form (XRPD) ([2]; suspension in Ethanol, 50° C.): Crystal form A
- Crystal form (XRPD) ([2]; suspension in Ethyl acetate, 25° C.): Crystal form A
- Crystal form (XRPD) ([2]; suspension in Ethyl acetate, 50° C.): Crystal form A
- Crystal form (XRPD) ([2]; suspension in Isopropanol, 25° C.): Crystal form A
- Crystal form (XRPD) ([2]; suspension in Isopropanol, 50° C.): Crystal form A
- Crystal form (XRPD) ([2]; suspension in Isopropyl acetate, 25° C.): Crystal form A
- Crystal form (XRPD) ([2]; suspension in Isopropyl acetate, 50° C.): Crystal form A
- Crystal form (XRPD) ([2]; suspension in Methanol, 25° C.): Crystal form B
- Crystal form (XRPD) ([2]; suspension in Methanol, 50° C.): Crystal form B
- Crystal form (XRPD) ([2]; suspension in Methyl acetate, 25° C.): Crystal form A
- Crystal form (XRPD) ([2]; suspension in Methyl acetate, 50° C.): Crystal form A
- Crystal form (XRPD) ([2]; suspension in NMP, 25° C.): Crystal form A
- Crystal form (XRPD) ([2]; suspension in NMP, 50° C.): Crystal form A
- Crystal form (XRPD) ([2]; suspension in n-Hexane, 25° C.): Crystal form A
- Crystal form (XRPD) ([2]; suspension in n-Hexane, 50° C.): Crystal form A
- Crystal form (XRPD) ([3]; 1,4-Dioxane): Clear solution
- Crystal form (XRPD) ([3]; Acetone): Crystal form A
- Crystal form (XRPD) ([3]; Acetone-water 1:1): Clear solution
- Crystal form (XRPD) ([3]; Acetonitrile): Crystal form B
- Crystal form (XRPD) ([3]; Acetonitrile-water 1:1): Clear solution
- Crystal form (XRPD) ([3]; Ethanol): Clear solution
- Crystal form (XRPD) ([3]; Isopropanol): Crystal form A
- Crystal form (XRPD) ([3]; Methanol): Crystal form B
- Crystal form (XRPD) ([3]; Methanol-water 1:1): Clear solution
- Crystal form (XRPD) ([3]; Tetrahydrofuran): Clear solution
- Crystal form (XRPD) ([3]; Water): Crystal form B
- Crystal form (XRPD) ([4]; good solvent Dichloromethane, poor solvent 1,4-Dioxane): Crystal form F
- Crystal form (XRPD) ([4]; good solvent Dichloromethane, poor solvent Methyl tert-butyl ether): Crystal forms A + B
- Crystal form (XRPD) ([4]; good solvent Dichloromethane, poor solvent Toluene): Crystal form A
- Crystal form (XRPD) ([4]; good solvent Dichloromethane, poor solvent n-Heptane): Crystal forms A + B
- Crystal form (XRPD) ([4]; good solvent Dimethyl sulfoxide, poor solvent 1,4-Dioxane): Clear solution
- Crystal form (XRPD) ([4]; good solvent Dimethyl sulfoxide, poor solvent Toluene): Clear solution
- Crystal form (XRPD) ([4]; good solvent Dimethyl sulfoxide, poor solvent Water): Clear solution
- Crystal form (XRPD) ([4]; good solvent Methanol, poor solvent 1,4-Dioxane): Clear solution
- Crystal form (XRPD) ([4]; good solvent Methanol, poor solvent Methyl tert-butyl ether): Crystal form B
- Crystal form (XRPD) ([4]; good solvent Methanol, poor solvent Toluene): Clear solution
- Crystal form (XRPD) ([4]; good solvent Methanol, poor solvent Water): Clear solution
- Crystal form (XRPD) ([4]; good solvent N,N-Dimethylformamide, poor solvent 1,4-Dioxane): Clear solution
- Crystal form (XRPD) ([4]; good solvent N,N-Dimethylformamide, poor solvent Methyl tert-butyl ether): Crystal form A
- Crystal form (XRPD) ([4]; good solvent N,N-Dimethylformamide, poor solvent Toluene): Crystal form A
- Crystal form (XRPD) ([4]; good solvent N,N-Dimethylformamide, poor solvent Water): Clear solution
